# The campaign covered roughly 360,000 compounds. About 7,500 (2.1%) were called active. Inconclusive results, whose numbers are uncertain, are shown with a selection of clear calls. The call rests on the fitted dose curve; in most records, active means well fitted inhibition curve with a large enough effect; inconclusive means small, poorly fitted or top-dose-only effect, or effect the other way; inactive means flat fitted curve, though single readings scatter. Potencies beside an inconclusive call are fits to weak or partial responses and may not hold up.
# Assay: Nrf2 qHTS screen for inhibitors; further: nearly all actives have a fitted effect of over 60% in size
# Details: A549 ARE-Fluc reporter, luciferase luminescence, 18-24 h; activity change, negative = inhibition: at 46 µM (top of the series)
# Summary of the method: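 A549 ARE_Fluc cells (5000/well, 5% FBS OPTI-MEM) pre-incubated 2 h, then treated with compounds 18-24 h at 37C/5% CO2 in concentration-response. CellTiter-Fluor viability read first; BugLite luciferase luminescence after 15 min at room temperature gives Nrf2 activity.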
# On the % scale 0 is the no-effect control and ±100 the full control effect; potency means the concentration at half of the fitted maximal effect.
Compound,Potency,"activity change, negative = inhibition"
O=C1NC2C(=CC(O)C(O)C2O)c2cc3c(c(O)c21)OCO3 (stereo unspecified),active: 0.259 µM,
CSc1ccc(C(=O)C2CCCN(Cc3cccnc3)C2)cc1 (stereo unspecified),"inconclusive: 29.1 µM [falling, single point]",
Cc1oc(-c2cccc(Cl)c2)nc1CN1CCC(C(=O)NCCCN2CCN(c3ccc(F)cc3)CC2)CC1,"inconclusive: 7.31 µM [activator, single point]",
Fc1ccc(C(OCCN2CCN(CCCc3ccccc3)CC2)c2ccc(F)cc2)cc1,active: 23.1 µM,
CC(=O)Nc1ccccc1C(=O)OCC(=O)Nc1ncccn1,"inconclusive: 0.82 µM [falling, full curve, poor fit]",
C[C@]12CCC(=O)C=C1C=CC1C2CC[C@]2(C)C(=O)CCC12 (stereo partly specified),,inactive: -4.03%
COc1ccc(CN2CCCC(C(=O)c3cccc(Cl)c3)C2)cc1 (stereo unspecified),"inconclusive: 3.66 µM [activator, single point]",
COc1ccc(Cc2c(O)[nH]c(=S)[nH]c2=O)cc1,"inconclusive: 23.1 µM [falling, single point]",
CCOc1ccc(-c2cc(C(=O)N3CCN(S(=O)(=O)c4cc(Cl)ccc4OC)CC3)[nH]n2)cc1,"inconclusive: 29.1 µM [falling, single point]",
Cc1ccc(CN(C)C(=O)c2cccc(S(=O)(=O)N3CCN(c4ccccc4)CC3)c2)cc1,"inconclusive: 16.4 µM [falling, single point]",
CCOCN(C(=O)CCl)c1c(C)cccc1CC,"inconclusive: 0.058 µM [falling, full curve, poor fit]",
O=C(Nc1cccc2ccccc12)N1CCC2(CC1)OCCO2,"inconclusive: 23.1 µM [activator, single point]",
COc1ccc(C(=O)Nc2cc(Cl)ccc2C(=O)O)cc1,"inconclusive: 0.58 µM [activator, full curve, poor fit]",
COC(=O)C1=C(c2ccc3ccccc3c2)C[C@@H]2CC[C@H]1N2C(=O)N1CCCCC1,"inconclusive: 29.1 µM [falling, single point]",
O=c1[nH]c(=S)n(CCC2=CCCCC2)c(O)c1C=NC1CCN(Cc2ccccc2)CC1,"inconclusive: 6.51 µM [falling, partial curve, poor fit]",
CCCOc1ccc(C(=O)Nc2ccc(-c3cc4ccccc4oc3=O)c(C)c2)cc1,active: 5.8 µM,
COc1ccc(-c2nn(CCC#N)cc2C(=O)Nc2ccccc2)cc1OC,"inconclusive: 0.259 µM [falling, full curve, poor fit]",
COC(=O)C[C@]1(C(=O)OC)CN(C#N)N(c2ccc(Cl)cc2)C12c1ccccc1-c1ccccc12,"inconclusive: 29.1 µM [falling, single point]",
Cc1nn(-c2ccccc2)c2c1C(c1ccc3c(c1)OCO3)SCC(=O)N2 (stereo unspecified),"inconclusive: 16.4 µM [falling, partial curve, poor fit]",
Cc1ccc(C(=O)N[C@@H](C)CN2C3=NC[C@@H](Cc4ccccc4)N3C[C@H]2Cc2ccc(O)cc2)cc1Br,,inactive: 22.5%
O/N=C1\CCC2CN(C3CCCCC3)CC2C1 (stereo unspecified),"inconclusive: 29.1 µM [activator, single point]",

Compound,Potency,"activity change, negative = inhibition"
CCc1ccccc1NC(=O)C(CC)Oc1ccccc1-c1nnc(-c2ccccc2)o1 (stereo unspecified),"inconclusive: 23.1 µM [falling, single point]",
O=C(O)Cn1cc(C(=O)c2ccccc2F)c2ccccc21,"inconclusive: 0.0651 µM [falling, full curve, poor fit]",
COc1ccccc1OCCNC(=O)c1cc(=O)[nH]c2ccccc12,"inconclusive: 23.1 µM [falling, single point]",
S=c1[nH]nc(-c2ccn[nH]2)n1-c1ccccc1Cl,"inconclusive: 5.8 µM [activator, partial curve]",
CCOP(=O)(OCC)C(NC(=O)Nc1ccc(C)c(Cl)c1)c1ccccc1 (stereo unspecified),"inconclusive: 5.8 µM [falling, partial curve, poor fit]",
Nc1nc(F)nc2c1ncn2[C@@H]1O[C@H](CO)[C@@H](O)[C@@H]1O,active: 5.8 µM,
COc1ccc2c(c1OC)CN1CCc3cc4c(cc3[C@H]1C2)OCO4,,inactive: -18.9%
CC(C)OP(=O)(Oc1ccc(C(O)C(Cl)(Cl)Cl)cc1)OC(C)C (stereo unspecified),"inconclusive: 23.1 µM [falling, partial curve, poor fit]",
COc1ccc(Cn2c(N)c(C(=O)NCc3ccco3)c3nc4ccccc4nc32)cc1OC,"inconclusive: 29.1 µM [falling, single point]",
COc1ccc(C2CC(=O)Nc3cc4c(cc32)OCO4)c(OC)c1 (stereo unspecified),"inconclusive: 23.1 µM [falling, partial curve, poor fit]",
CCCC1=Nc2cc(C(=O)NCCCN(CC)CC)ccc2Sc2ccccc21,"inconclusive: 7.31 µM [activator, partial curve]",
Cc1cc(OCC(=O)NC2CCS(=O)(=O)C2)c2c3c(c(=O)oc2c1)CCC3 (stereo unspecified),,inactive: -3.28%
CCn1c(O)c(C=Nc2ccc(N3CCOCC3)cc2)c(=O)n(CC)c1=S,"inconclusive: 20.6 µM [falling, single point]",
CN1CCC23c4c5ccc(O)c4O[C@@H]2[C@H](O)C=CC3C1C5 (stereo partly specified),,inactive: 3.87%
Cc1ccc(-n2nc3c(=O)n(CC(=O)Nc4ccccc4F)nc(C)c3c2C)c(C)c1,"inconclusive: 18.4 µM [falling, single point]",
C[C@]1(O)CC[C@H]2[C@@H]3CCC4=CC(=O)CC[C@]4(C)[C@@]3(F)[C@@H](O)C[C@@]21C,,inactive: -26.3%
O=C1CN=C(c2ccccc2)c2ccccc2N1Cc1ccc(C(F)(F)F)cc1,"inconclusive: 29.1 µM [falling, single point]",
CCCCCCCn1c(=O)c(C(=O)Nc2cnccn2)c(O)c2ccccc21,active: 4.11 µM,
COc1ccc(Nc2c(-c3cc(Br)ccc3O)nc3ncccn23)cc1OC,"inconclusive: 20.6 µM [falling, single point]",
Cc1ccc(NCc2cccn2-c2nnc(N3CCC(C(=O)NCc4ccc(OC(C)C)cc4)CC3)s2)cc1,active: 25.9 µM,

# Reprinted at random: 2 records from the list.
Compound,Potency,"activity change, negative = inhibition"
C[C@]12CCC(=O)C=C1C=CC1C2CC[C@]2(C)C(=O)CCC12 (stereo partly specified),,inactive: -4.03%
CC(=O)Nc1ccccc1C(=O)OCC(=O)Nc1ncccn1,"inconclusive: 0.82 µM [falling, full curve, poor fit]",

# — PubChem BioAssay AID504444 (National Center for Advancing Translational Sciences (NCATS), 2011)
